PubChem BioAssay AID504774 | Drosophila RNAi Screening Center, 2011
The screen tested about 23,000 reagents; shown is a random part of those with a known target gene and a result. 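Values are quantile-normalised luminescence on an arbitrary scale; higher means more cells surviving MMS.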 A plus sign joins genes that one reagent is predicted to hit. Further read-outs or replicates are left out here.

Purpose: 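Knock-downs that shift viability of MMS-exposed cells relative to untreated ones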 (primary screen)
Cell system: Drosophila Kc167 cells
Reagents: long dsRNA against Drosophila genes, about 0.25 µg dsRNA per well
Timing: about 6 days: 3 days knock-down, then 3 days with or without MMS
Challenge: methyl methanesulphonate 0.004% (w/v) for 3 days after knock-down
Detection: 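Viability in wells given MMS, read as ATP luminescence, normalised by quantiles plate by plate and averaged across replicates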
Scale: mean viability with MMS and viability with MMS: higher = more surviving cells after MMS

Which result is listed for CG8468 [DRSC07190]?
mean viability with MMS: 3.47e6; viability with MMS, replicate 1: 3.94e6

With CG14107 [DRSC10110], how do the results read?
mean viability with MMS: 3.29e6; viability with MMS, replicate 1: 3.59e6

How did the screen score slou (slouch) [DRSC17058]?
mean viability with MMS: 3.64e6; viability with MMS, replicate 1: 4.10e6

How did the screen score link [DRSC06368]?
mean viability with MMS: 3.39e6; viability with MMS, replicate 1: 3.81e6

For CG14285 [DRSC14766], what does the deposit list?
mean viability with MMS: 3.63e6; viability with MMS, replicate 1: 4.03e6

With e(y)2 (enhancer of yellow 2) [DRSC19640], how do the results read?
mean viability with MMS: 3.52e6; viability with MMS, replicate 1: 3.97e6

How did the screen score CG31698 [DRSC22226]?
mean viability with MMS: 3.66e6; viability with MMS, replicate 1: 4.08e6

For CG1575 [DRSC18069], how do the results read?
mean viability with MMS: 3.56e6; viability with MMS, replicate 1: 3.89e6

What did the screen give for CaMKII (Calcium/calmodulin-dependent protein kinase II) [DRSC17214]?
mean viability with MMS: 3.59e6; viability with MMS, replicate 1: 4.03e6

With GstS1 (Glutathione S transferase S1) [DRSC07436], how do the results read?
mean viability with MMS: 3.60e6; viability with MMS, replicate 1: 4.12e6

For Pgam5 (Phosphoglycerate mutase 5) [DRSC18551], how do the results read?
mean viability with MMS: 3.64e6; viability with MMS, replicate 1: 4.08e6

Which result is listed for Mdr50 (Multi drug resistance 50) [DRSC07467]?
mean viability with MMS: 3.30e6; viability with MMS, replicate 1: 3.77e6

What did the screen give for Delta [DRSC16648]?
mean viability with MMS: 3.75e6; viability with MMS, replicate 1: 4.28e6

For CG44325 [DRSC18423], how do the results read?
mean viability with MMS: 3.35e6; viability with MMS, replicate 1: 3.65e6

What is on record for CG14950 (retired record) [DRSC08409]?
mean viability with MMS: 3.48e6; viability with MMS, replicate 1: 3.97e6

What did the screen give for CG31111 [DRSC14649]?
mean viability with MMS: 3.40e6; viability with MMS, replicate 1: 3.85e6

How did the screen score CG4630 [DRSC06874]?
mean viability with MMS: 3.62e6; viability with MMS, replicate 1: 4.13e6

What did the screen give for CG33333 [DRSC13233]?
mean viability with MMS: 3.66e6; viability with MMS, replicate 1: 4.14e6

What is on record for CG8952 [DRSC20133]?
mean viability with MMS: 3.52e6; viability with MMS, replicate 1: 3.98e6

Which result is listed for SmydA-2 (SET and MYND domain containing, arthropod-specific, member 2) [DRSC10296]?
mean viability with MMS: 3.37e6; viability with MMS, replicate 1: 3.83e6

With Nipsnap [DRSC20169], what does the deposit list?
mean viability with MMS: 3.46e6; viability with MMS, replicate 1: 4.17e6

How did the screen score ry (rosy) [DRSC17048]?
mean viability with MMS: 3.61e6; viability with MMS, replicate 1: 4.06e6

Which result is listed for ast (asteroid) [DRSC00803]?
mean viability with MMS: 3.58e6; viability with MMS, replicate 1: 4.01e6

What did the screen give for SPH93 (Serine protease homolog 93) [DRSC02978]?
mean viability with MMS: 3.61e6; viability with MMS, replicate 1: 4.16e6

For l(3)S110416 (retired record) [DRSC17094], what does the deposit list?
mean viability with MMS: 3.72e6; viability with MMS, replicate 1: 4.19e6

What is on record for CG6005 [DRSC15945]?
mean viability with MMS: 3.60e6; viability with MMS, replicate 1: 4.12e6

Which result is listed for CG9582 [DRSC03267]?
mean viability with MMS: 3.92e6; viability with MMS, replicate 1: 4.77e6

With Gr22b (Gustatory receptor 22b) [DRSC20911], what does the deposit list?
mean viability with MMS: 2.22e6; viability with MMS, replicate 1: 3.96e6

What is on record for CG31775 + CG42586 [DRSC22289]?
mean viability with MMS: 3.69e6; viability with MMS, replicate 1: 4.11e6

With CG31775 + CG42586 [DRSC23266], how do the results read?
mean viability with MMS: 3.66e6; viability with MMS, replicate 1: 4.15e6

What did the screen give for CG3246 [DRSC00584]?
mean viability with MMS: 3.55e6; viability with MMS, replicate 1: 4.12e6

For mof (males absent on the first) [DRSC18795], what does the deposit list?
mean viability with MMS: 3.80e6; viability with MMS, replicate 1: 4.51e6

Which result is listed for CG4714 [DRSC06883]?
mean viability with MMS: 3.62e6; viability with MMS, replicate 1: 4.11e6

With CG13623 [DRSC14625], what does the deposit list?
mean viability with MMS: 3.36e6; viability with MMS, replicate 1: 3.76e6

For croc (crocodile) [DRSC11884], how do the results read?
mean viability with MMS: 3.62e6; viability with MMS, replicate 1: 4.03e6
